Data as given in patent US11219602B2, “Method for making a micronized dry powder formulation of glycopyrrolate and magnesium stearate” (VECTURA LIMITED, priority 2017, dated 2022).

Experiment: Dynamic Vapour Sorption (amorphous content)
Format: physicochemical
Settings: t=0, immediately after micronisation, 25° C., 0-90% RH
Protocol: The amorphous content for micronized glycopyrrolate was assessed by DVS using an SMS DVS Advantage instrument which was set to a temperature of 25° C. The humidity was increased from 0-90% RH then returned to 0% RH in steps of 10% RH, changes between steps which were triggered by a mass change of 0.0001 (% dm/dt).

C[N+]1(C)CCC(OC(=O)C(O)(c2ccccc2)C2CCCC2)C1 (stereo not shown) [jet milled glycopyrrolate, glycopyrrolate]
Amorphous material by Dynamic Vapour Sorption: substantial amounts of amorphous material
